Results published in PMC4618286.
These are yes or no findings as the source states them, for the method shown. In cells and extracts the contact can be indirect. Some entries that bind do so weakly or less than the wild type. Sequences can lack the tags named with a protein. Each block holds one binder with its values, some of them ahead of it.

Columns and labels:
[1] = biological target: T1, His-tagged version of CotH (CotH-His) (Bacillus subtilis) (UniProt Q45535); assay: pull-down; His tag pull-down: 300 ug extract with CotH-His bound to Ni-NTA magnetic agarose beads and washed; 300 ug E. coli extract with untagged CotE added, 1 h at room temperature; 50 mM NaH2PO4, 300 mM NaCl; washes with 40, 100 and 250 mM imidazole, elution with 500 mM and 1 M imidazole; immunoblot with anti-CotH and anti-CotE; only the target purified
T1 sequence: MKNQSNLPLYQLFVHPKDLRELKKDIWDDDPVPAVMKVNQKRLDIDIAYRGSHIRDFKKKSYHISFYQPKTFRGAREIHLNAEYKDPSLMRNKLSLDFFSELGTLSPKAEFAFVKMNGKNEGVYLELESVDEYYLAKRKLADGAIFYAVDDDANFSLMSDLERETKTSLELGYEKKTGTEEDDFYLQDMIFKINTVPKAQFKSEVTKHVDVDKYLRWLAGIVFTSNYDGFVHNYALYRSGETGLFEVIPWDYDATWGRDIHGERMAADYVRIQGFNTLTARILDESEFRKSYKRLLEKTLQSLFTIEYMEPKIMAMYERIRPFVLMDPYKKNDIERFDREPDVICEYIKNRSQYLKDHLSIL

[2] = biological target: T1, His-tagged version of CotH (CotH-His) (Bacillus subtilis); assay: pull-down; same His tag pull-down with CotH-His on Ni-NTA beads and the CotE versions lacking 6 C-terminal residues; data not shown; only the target purified

binding [1]: no binding
B1: CotE lacking 9 amino acids (untagged CotE -9) (domain or fragment, UniProt P14016 1-172)
chain: MSEYREIITKAVVAKGRKFTQCTNTISPEKKPSSILGGWIINHKYDAEKIGKTVEIEGYYDINVWYSYADNTKTEVVTERVKYVDVIKLRYRDNNYLDDEHEVIAKVLQQPNCLEVTISPNGNKIVVQAEREFLAEVVGETKVVVEVNPDWEEDDEEDWEDELDEELEDINP

binding [1]: binds
B2: untagged version of CotE (protein, UniProt P14016 1-181)
chain: MSEYREIITKAVVAKGRKFTQCTNTISPEKKPSSILGGWIINHKYDAEKIGKTVEIEGYYDINVWYSYADNTKTEVVTERVKYVDVIKLRYRDNNYLDDEHEVIAKVLQQPNCLEVTISPNGNKIVVQAEREFLAEVVGETKVVVEVNPDWEEDDEEDWEDELDEELEDINPEFLVGDPEE

binding [1]: binds
B3: CotE lacking the C-terminal 9 amino acids with the addition of two glutamic acid (EE) residues (domain or fragment, UniProt P14016 1-172)
chain: MSEYREIITKAVVAKGRKFTQCTNTISPEKKPSSILGGWIINHKYDAEKIGKTVEIEGYYDINVWYSYADNTKTEVVTERVKYVDVIKLRYRDNNYLDDEHEVIAKVLQQPNCLEVTISPNGNKIVVQAEREFLAEVVGETKVVVEVNPDWEEDDEEDWEDELDEELEDINPEE

binding [2]: binds
B4: CotE lacking the 6 C-terminal residues with a glutamic acid (E) residue added (domain or fragment, UniProt P14016 1-175)
chain: MSEYREIITKAVVAKGRKFTQCTNTISPEKKPSSILGGWIINHKYDAEKIGKTVEIEGYYDINVWYSYADNTKTEVVTERVKYVDVIKLRYRDNNYLDDEHEVIAKVLQQPNCLEVTISPNGNKIVVQAEREFLAEVVGETKVVVEVNPDWEEDDEEDWEDELDEELEDINPEFLE
